Measured values reported in paper doi:10.1101/210898.
These are yes or no findings as the source states them, for the method shown. In cells and extracts the contact can be indirect. Some entries that bind do so weakly or less than the wild type.

Amino acid sequences for entries named in this document (tags omitted). A change or cut given only in a name is not applied to a line headed by its entry. Residues count along the entry.
UniProt P28066, 188-241: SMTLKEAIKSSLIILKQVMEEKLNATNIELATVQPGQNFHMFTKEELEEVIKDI
UniProt P28066, whole entry: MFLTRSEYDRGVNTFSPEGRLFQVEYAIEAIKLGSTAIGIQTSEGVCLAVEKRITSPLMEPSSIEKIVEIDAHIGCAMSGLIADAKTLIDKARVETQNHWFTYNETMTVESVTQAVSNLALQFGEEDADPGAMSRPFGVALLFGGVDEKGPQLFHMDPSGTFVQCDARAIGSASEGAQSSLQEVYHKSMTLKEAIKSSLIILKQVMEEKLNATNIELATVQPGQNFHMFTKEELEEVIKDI
UniProt P25788, 187-255: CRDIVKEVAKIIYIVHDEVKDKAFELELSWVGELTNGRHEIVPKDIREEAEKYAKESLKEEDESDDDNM
UniProt P25788, whole entry: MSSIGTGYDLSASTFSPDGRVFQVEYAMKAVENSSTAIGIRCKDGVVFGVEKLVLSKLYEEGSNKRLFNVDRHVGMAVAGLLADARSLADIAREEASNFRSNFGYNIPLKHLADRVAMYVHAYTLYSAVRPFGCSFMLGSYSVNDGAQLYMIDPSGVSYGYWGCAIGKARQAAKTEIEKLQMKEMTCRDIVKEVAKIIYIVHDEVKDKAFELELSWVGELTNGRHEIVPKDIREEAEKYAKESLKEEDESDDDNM
UniProt P25788, 1-229, stated change not applied: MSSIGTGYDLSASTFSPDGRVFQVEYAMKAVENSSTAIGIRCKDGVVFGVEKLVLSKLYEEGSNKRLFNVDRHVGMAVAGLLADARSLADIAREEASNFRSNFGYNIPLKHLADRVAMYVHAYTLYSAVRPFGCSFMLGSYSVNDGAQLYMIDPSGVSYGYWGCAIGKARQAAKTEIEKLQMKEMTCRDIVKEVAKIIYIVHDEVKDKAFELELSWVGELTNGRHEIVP
UniProt P38936, whole entry: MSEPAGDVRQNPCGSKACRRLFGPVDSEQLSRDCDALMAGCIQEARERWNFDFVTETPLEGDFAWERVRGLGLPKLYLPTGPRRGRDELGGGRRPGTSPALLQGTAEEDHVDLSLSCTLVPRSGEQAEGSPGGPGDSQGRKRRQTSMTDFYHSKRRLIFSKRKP
UniProt P01100, whole entry: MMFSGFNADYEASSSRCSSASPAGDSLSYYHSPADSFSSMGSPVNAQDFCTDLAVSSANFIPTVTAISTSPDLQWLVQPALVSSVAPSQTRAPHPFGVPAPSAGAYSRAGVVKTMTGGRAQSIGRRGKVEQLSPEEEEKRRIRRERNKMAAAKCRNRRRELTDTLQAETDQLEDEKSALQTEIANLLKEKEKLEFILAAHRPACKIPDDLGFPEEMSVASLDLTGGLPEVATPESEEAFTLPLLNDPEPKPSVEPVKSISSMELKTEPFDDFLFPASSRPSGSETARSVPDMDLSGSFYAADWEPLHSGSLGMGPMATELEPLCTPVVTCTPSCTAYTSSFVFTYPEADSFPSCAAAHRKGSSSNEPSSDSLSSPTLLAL

Tests used:
HA PSMA5 FPC (PSMA5 wt) = HA PSMA5 FPC (PSMA5 wt) (UniProt P28066); experiment: co-IP
GST-PSMA3-Ct187-255 = GST-PSMA3-Ct187-255 (UniProt P25788); experiment: pull-down
GST-PSMA5-Ct188-241 = GST-PSMA5-Ct188-241 (UniProt P28066); experiment: pull-down
HA PSMA3 FPC [1] = molecular target: HA PSMA3 FPC (UniProt P25788); experiment: split reporter
[2] = molecular target: chimeric PSMA3 Ct-Δ26 (FPC fusion) (UniProt P25788); experiment: split reporter
HA PSMA3 FPC [3] = molecular target: HA PSMA3 FPC (UniProt P25788); experiment: co-sedimentation + split reporter

| Substance | binding (HA PSMA5 FPC (PSMA5 wt)) | binding (GST-PSMA3-Ct187-255) | binding (GST-PSMA5-Ct188-241) | binding (HA PSMA3 FPC [1]) | binding [2] | binding (HA PSMA3 FPC [3]) |
| --- | --- | --- | --- | --- | --- | --- |
| 6xmyc p21 (from UniProt P38936 1-164) | no binding | binds | no binding |  |  |  |
| 6xmyc p21 FPN (from UniProt P38936 1-164) |  |  |  | binds | binds | binds |
| c-Fos (endogenous) (from UniProt P01100 1-380) |  | binds | no binding |  |  |  |
| p53 (endogenous) (from UniProt P04637 1-393) |  | binds | no binding |  |  |  |
